The values that follow come from publication PMC10050189, “Alpha 2-macroglobulin acts as a clearance factor in the lysosomal degradation of extracellular misfolded proteins” (Scientific Reports, 2023).

By UniProt entry, the sequences of proteins in these tests, tags left out.
UniProt Q8BJY1: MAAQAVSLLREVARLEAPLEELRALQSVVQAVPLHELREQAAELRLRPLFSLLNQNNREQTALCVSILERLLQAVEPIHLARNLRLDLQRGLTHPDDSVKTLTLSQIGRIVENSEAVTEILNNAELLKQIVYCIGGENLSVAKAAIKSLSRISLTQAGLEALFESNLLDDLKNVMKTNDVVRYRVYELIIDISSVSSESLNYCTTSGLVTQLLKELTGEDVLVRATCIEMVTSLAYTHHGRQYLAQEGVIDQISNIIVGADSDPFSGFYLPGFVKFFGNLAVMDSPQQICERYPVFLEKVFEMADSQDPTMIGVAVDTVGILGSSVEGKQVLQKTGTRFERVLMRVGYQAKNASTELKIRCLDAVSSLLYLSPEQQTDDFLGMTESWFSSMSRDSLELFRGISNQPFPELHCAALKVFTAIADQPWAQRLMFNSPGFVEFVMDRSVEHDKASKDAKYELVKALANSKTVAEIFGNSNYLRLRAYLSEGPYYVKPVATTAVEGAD

These are yes or no findings as the source states them, for the method shown. In cells and extracts the contact can be indirect. Here binding means that the protein was enriched with, or labelled near, the bait; the list need not be complete. Tags and fused reporters may be left off the sequences shown.

To fix the notation:
B1: retinal dehydrogenase 1 (ALDH1A1) of mouse blood cell lysate (protein, UniProt P24549 1-501)
chain: MSSPAQPAVPAPLADLKIQHTKIFINNEWHNSVSGKKFPVLNPATEEVICHVEEGDKADVDKAVKAARQAFQIGSPWRTMDASERGRLLNKLADLMERDRLLLATMEALNGGKVFANAYLSDLGGCIKALKYCAGWADKIHGQTIPSDGDIFTYTRREPIGVCGQIIPWNFPMLMFIWKIGPALSCGNTVVVKPAEQTPLTALHLASLIKEAGFPPGVVNIVPGYGPTAGAAISSHMDVDKVAFTGSTQVGKLIKEAAGKSNLKRVTLELGGKSPCIVFADADLDIAVEFAHHGVFYHQGQCCVAASRIFVEESVYDEFVKRSVERAKKYVLGNPLTPGINQGPQIDKEQHDKILDLIESGKKEGAKLECGGGRWGNKGFFVQPTVFSNVTDEMRIAKEEIFGPVQQIMKFKSVDDVIKRANNTTYGLAAGLFTKDLDKAITVSSALQAGVVWVNCYMMLSAQCPFGGFKMSGNGRELGEHGLYEYTELKTVAMKISQKNS
B2: carbonic anhydrase 1 (CA1) of mouse blood cell lysate (protein, UniProt P13634 1-261)
chain: MASADWGYGSENGPDQWSKLYPIANGNNQSPIDIKTSEANHDSSLKPLSISYNPATAKEIVNVGHSFHVIFDDSSNQSVLKGGPLADSYRLTQFHFHWGNSNDHGSEHTVDGTRYSGELHLVHWNSAKYSSASEAISKADGLAILGVLMKVGPANPSLQKVLDALNSVKTKGKRAPFTNFDPSSLLPSSLDYWTYFGSLTHPPLHESVTWVICKDSISLSPEQLAQLRGLLSSAEGEPAVPVLSNHRPPQPLKGRTVRASF
B3: glutamate–cysteine ligase regulatory subunit (GCLM) of mouse blood cell lysate (protein, UniProt O09172 1-274)
chain: MGTDSRAAGALLARASTLHLQTGNLLNWGRLRKKCPSTHSEELRDCIQKTLNEWSSQISPDLVREFPDVLECTMSHAVEKINPDEREEMKVSAKLFIVGSNSSSSTRSAVDMACSVLGVAQLDSVIMASPPIEDGVNLSLEHLQPYWEELENLVQSKKIVAIGTSDLDKTQLEQLYQWAQVKPNSNQVNLASCCVMPPDLTAFAKQFDIQLLTHNDPKELLSEASFQEALQESIPDIEAQDWVPLWLLRYSVIVKSRGIIKSKGYILQAKRRGS
B4: S-formylglutathione hydrolase (ESD) of mouse blood cell lysate (protein, UniProt Q9R0P3 1-282)
chain: MALKQISSNRCFGGLQKVFEHSSVELKCKMRFAVYLPPQAESGKCPALYWLSGLTCTEQNFISKSGYQQAASEHGLVVIAPDTSPRGCNIKGEDDSWDFGTGAGFYVNATEDPWKANYRMYSYVTEELPQLINANFPVDPQRMSIFGHSMGGHGALICALKNPGKYRSVSAFAPICNPVLCSWGKKAFSGYLGPDESKWKAYDATCLVKAYSGSQIDILIDQGKDDEFLSNGQLLPDNFIAACTEKKIPVVFRLQEGYDHSYYFIATFIADHIRHHAKYLNA

The experiment addresses T1, α2M–ALFA–His (human (cDNA from HepG2)) (UniProt P01023).
T1 sequence: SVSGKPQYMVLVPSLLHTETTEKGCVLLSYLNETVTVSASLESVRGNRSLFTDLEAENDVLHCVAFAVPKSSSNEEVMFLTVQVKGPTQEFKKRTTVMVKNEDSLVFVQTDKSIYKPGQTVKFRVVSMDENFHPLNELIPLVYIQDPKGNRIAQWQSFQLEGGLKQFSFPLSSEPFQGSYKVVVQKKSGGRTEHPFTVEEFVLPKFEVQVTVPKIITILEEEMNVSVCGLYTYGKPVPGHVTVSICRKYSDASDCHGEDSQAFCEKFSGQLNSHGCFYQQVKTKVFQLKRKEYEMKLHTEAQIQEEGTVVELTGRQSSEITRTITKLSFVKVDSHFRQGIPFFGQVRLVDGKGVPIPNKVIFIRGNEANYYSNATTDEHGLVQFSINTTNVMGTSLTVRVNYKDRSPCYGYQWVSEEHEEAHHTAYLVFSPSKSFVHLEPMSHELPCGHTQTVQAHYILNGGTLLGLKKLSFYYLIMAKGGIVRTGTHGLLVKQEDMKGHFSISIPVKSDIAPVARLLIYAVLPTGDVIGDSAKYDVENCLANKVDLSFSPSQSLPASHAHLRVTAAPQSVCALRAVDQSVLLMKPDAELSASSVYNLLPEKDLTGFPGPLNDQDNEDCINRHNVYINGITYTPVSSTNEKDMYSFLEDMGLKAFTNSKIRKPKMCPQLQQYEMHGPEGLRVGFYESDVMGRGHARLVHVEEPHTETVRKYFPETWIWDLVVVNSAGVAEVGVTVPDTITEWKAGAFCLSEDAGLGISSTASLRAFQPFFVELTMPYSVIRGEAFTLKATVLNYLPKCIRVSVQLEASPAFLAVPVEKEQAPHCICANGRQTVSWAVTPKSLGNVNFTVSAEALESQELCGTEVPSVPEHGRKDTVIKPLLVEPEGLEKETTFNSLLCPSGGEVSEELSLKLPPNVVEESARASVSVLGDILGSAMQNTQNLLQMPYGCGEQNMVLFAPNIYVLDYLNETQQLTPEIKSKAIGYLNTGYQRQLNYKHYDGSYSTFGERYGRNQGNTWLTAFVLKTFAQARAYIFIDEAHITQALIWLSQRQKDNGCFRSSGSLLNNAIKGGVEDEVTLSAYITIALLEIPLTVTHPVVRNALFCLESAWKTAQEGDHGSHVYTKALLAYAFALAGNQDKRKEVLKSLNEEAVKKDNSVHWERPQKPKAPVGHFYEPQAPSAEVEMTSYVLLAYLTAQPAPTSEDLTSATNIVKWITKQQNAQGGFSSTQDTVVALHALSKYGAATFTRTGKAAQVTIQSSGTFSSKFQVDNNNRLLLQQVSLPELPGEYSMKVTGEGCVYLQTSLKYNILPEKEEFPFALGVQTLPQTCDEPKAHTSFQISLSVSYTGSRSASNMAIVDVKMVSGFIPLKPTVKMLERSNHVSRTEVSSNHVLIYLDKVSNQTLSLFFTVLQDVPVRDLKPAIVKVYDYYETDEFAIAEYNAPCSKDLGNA
The experiment can be described thus: affinity purification with mass spectrometry; purified α2M–ALFA (0.14 μM) mixed with mouse blood cell (RBC) lysate, 50 °C (heat stress) or 4 °C for 1 h; ALFA tag-nanobody sepharose 2 h at 4 °C, washed four times with PBS; ruby staining and mass spectrometry; only the target purified.
For “carbonic anhydrase 2 (CA2) of mouse blood cell lysate (from UniProt P00920 1-260)”, the binding result is “binds”.
Take “26S proteasome non-ATPase regulatory subunit 5 (PSMD5) of mouse blood cell lysate (from UniProt Q8BJY1 1-504)”: the binding entry is “binds”.
For the molecule B1, the binding entry is listed as “binds”.
Turning to B2, the binding entry is “binds”.
As to B3, the binding result is given as “binds”.
Take B4: the binding result was “binds”.
